{
  "source": "patent US10597378B2",
  "about": "(priority 2017, dated 2020)",
  "test_system": "wild-type C57BL/6 (B6) mice",
  "assay": "Tail flick test (acute thermal pain)",
  "type": "in vivo, mouse",
  "conditions": "single dose subcutaneous injection, 30-120 min",
  "data": [
    {"smiles": "CN1CC[C@]23c4c5ccc(O)c4O[C@H]2[C@@H](O)C=C[C@H]3[C@H]1C5.Cl", "note": "[morphine, Morphine hydrochloride, reference compound]", "values": [
      {"measurement": "antinociception (% of MPE, AUC)", "value": "induced antinociception at doses of 2.4-7.2 mg/kg"}
    ]}
  ]
}
